## Results from one PubChem assay

From PubChem BioAssay record AID1080 (Emory University Molecular Libraries Screening Center, 2008).

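A cell line overexpressing EP4 prostanoid receptors, stimulated with a low (about EC15) PGE2 dose; cAMP read by HTRF FRET after a short room-temperature incubation.
Compounds were tested at 20 µM final. A low (about EC15) PGE2 dose was present.
Percent cAMP induction as a fraction of the 1 µM PGE2 response, averaged over three replicates; a higher value means more cAMP.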

Values are in %.
Common to all entries: measured here: EP4 receptor counter-screen.
Part of the compounds only, not a random draw; the main read-out is not listed here.

compound,tested on / at,cAMP induction (%)
CCSc1ccccc1C(=O)Nc1ccc([N+](=O)[O-])cc1OC,percent of 1 uM PGE2 response; plus low (about EC15) PGE2 agonist,5.033
CN(/N=C/C=C/c1ccccc1)C1=NS(=O)(=O)c2ccccc21,percent of 1 uM PGE2 response; plus low (about EC15) PGE2 agonist,-4.303
COC(=O)c1ccccc1NC(=O)c1cnn2c(C(F)F)cc(C3CC3)nc12,percent of 1 uM PGE2 response; plus low (about EC15) PGE2 agonist,-7.427
CC1(c2cc([N+](=O)[O-])cc([N+](=O)[O-])c2)CC(C)(C)N(C(=O)c2ccccc2)c2ccccc21 (stereo unspecified),percent of 1 uM PGE2 response; plus low (about EC15) PGE2 agonist,16.44
C=CCOc1c(Br)cc(/C=N/n2c(CC)n[nH]c2=S)cc1Br,percent of 1 uM PGE2 response; plus low (about EC15) PGE2 agonist,-7.377
CCCN(CCC)C(C)C(=O)NCC1(c2ccccc2)CCCC1 (stereo unspecified),percent of 1 uM PGE2 response; plus low (about EC15) PGE2 agonist,-1.597
CC(=O)O[C@@H]1c2c(ccc3ccc(=O)oc23)OC(C)(C)[C@@H]1OC(=O)CC(C)C,percent of 1 uM PGE2 response; plus low (about EC15) PGE2 agonist,3.41
O=C(/C=C/Nc1ccccc1Oc1ccccc1)c1ccco1,percent of 1 uM PGE2 response; plus low (about EC15) PGE2 agonist,-3.68
CCOc1ccccc1NC1c2ccccc2C(=O)N1c1ccc(C)cn1 (stereo unspecified),percent of 1 uM PGE2 response; plus low (about EC15) PGE2 agonist,5.857
Cc1nc2c(c(C)nn2-c2ccccc2)c(C)c1Cl,percent of 1 uM PGE2 response; plus low (about EC15) PGE2 agonist,-3.48
Cc1cc2c3c(c1)C1(SCC(=O)N1c1ccc(F)cc1)C(=O)N3C(C)(C)CC2C (stereo unspecified),percent of 1 uM PGE2 response; plus low (about EC15) PGE2 agonist,-3.723
CC[C@@H]1C(=O)OC[C@@H]1Cc1cncn1C,percent of 1 uM PGE2 response; plus low (about EC15) PGE2 agonist,1.443
CCN(CC)C(=O)c1nn(-c2ccccc2)c2c1C1CCC2(C)C1(C)C (stereo unspecified),percent of 1 uM PGE2 response; plus low (about EC15) PGE2 agonist,-18.79
CCOC(=O)c1c(C=O)c(C)n(Cc2ccccc2Cl)c1C,percent of 1 uM PGE2 response; plus low (about EC15) PGE2 agonist,5.6
COCCCN(C(=O)c1ccco1)c1nc(-c2cc(OC)ccc2OC)cs1,percent of 1 uM PGE2 response; plus low (about EC15) PGE2 agonist,-3.043
CCOC(=O)C1=C(C)N(C)C(C)=C(C(=O)OCC)C1c1ccccc1,percent of 1 uM PGE2 response; plus low (about EC15) PGE2 agonist,2.373
CCCC(=O)O[C@H]1C[C@@H](C)N(C(=O)c2ccccc2)c2ccc(C)cc21,percent of 1 uM PGE2 response; plus low (about EC15) PGE2 agonist,-17.62
COC(=O)CC1C(C)(C)C(OC(C)=O)[C@@H]2[C@@H](OC(C)=O)[C@]34O[C@@]2(O)[C@]1(C)C3CC[C@]1(C)C4=CC(=O)O[C@H]1c1ccoc1 (stereo partly specified),percent of 1 uM PGE2 response; plus low (about EC15) PGE2 agonist,-8.527
C=CCC(=O)OCCCCCCOc1ccc(C(=O)O)cc1,percent of 1 uM PGE2 response; plus low (about EC15) PGE2 agonist,0.05667

For reference, 2 entries once more:

| compound | tested on / at | cAMP induction (%) |
|---|---|---|
| `CC1(c2cc([N+](=O)[O-])cc([N+](=O)[O-])c2)CC(C)(C)N(C(=O)c2ccccc2)c2ccccc21` (stereo unspecified) | percent of 1 uM PGE2 response; plus low (about EC15) PGE2 agonist | 16.44 |
| `O=C(/C=C/Nc1ccccc1Oc1ccccc1)c1ccco1` | percent of 1 uM PGE2 response; plus low (about EC15) PGE2 agonist | -3.68 |